These are yes or no findings as the source states them, for the method shown. In cells and extracts the contact can be indirect. Some entries that bind do so weakly or less than the wild type.
How the values were obtained:
[1] = target: FGF21 (in cardiomyocytes isolated from the ischemic myocardium of wild-type mice) (mouse (endogenous in wild-type mice)) (UniProt Q9JJN1); test: co-IP; cardiomyocytes isolated from the ischemic myocardium of wild-type mice at 1, 3 and 5 days after ischemia/reperfusion injury; myocardial injection of β-Klotho siRNA or control siRNA 3 days before injury; immunoprecipitation and immunoblot
[2] = target: recombinant mouse FGF21 (mouse) (UniProt Q9JJN1); test: co-IP; cardiomyocytes freshly isolated from healthy wild-type mice incubated in vitro with recombinant mouse FGF21 (50 ng/ml), 5 to 120 min; lysed in RIPA buffer; co-immunoprecipitation and immunoblot; only the target purified

Protein sequences, listed by entry. Tags and fused reporters are not part of them. Residues count along the entry.
UniProt Q9JJN1, residues 29-210: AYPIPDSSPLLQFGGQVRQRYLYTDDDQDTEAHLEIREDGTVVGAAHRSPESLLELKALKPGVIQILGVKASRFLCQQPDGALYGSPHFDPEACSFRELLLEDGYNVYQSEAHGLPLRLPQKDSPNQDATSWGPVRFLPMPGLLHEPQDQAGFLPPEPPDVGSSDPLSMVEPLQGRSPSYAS
UniProt P16092, residues 22-822: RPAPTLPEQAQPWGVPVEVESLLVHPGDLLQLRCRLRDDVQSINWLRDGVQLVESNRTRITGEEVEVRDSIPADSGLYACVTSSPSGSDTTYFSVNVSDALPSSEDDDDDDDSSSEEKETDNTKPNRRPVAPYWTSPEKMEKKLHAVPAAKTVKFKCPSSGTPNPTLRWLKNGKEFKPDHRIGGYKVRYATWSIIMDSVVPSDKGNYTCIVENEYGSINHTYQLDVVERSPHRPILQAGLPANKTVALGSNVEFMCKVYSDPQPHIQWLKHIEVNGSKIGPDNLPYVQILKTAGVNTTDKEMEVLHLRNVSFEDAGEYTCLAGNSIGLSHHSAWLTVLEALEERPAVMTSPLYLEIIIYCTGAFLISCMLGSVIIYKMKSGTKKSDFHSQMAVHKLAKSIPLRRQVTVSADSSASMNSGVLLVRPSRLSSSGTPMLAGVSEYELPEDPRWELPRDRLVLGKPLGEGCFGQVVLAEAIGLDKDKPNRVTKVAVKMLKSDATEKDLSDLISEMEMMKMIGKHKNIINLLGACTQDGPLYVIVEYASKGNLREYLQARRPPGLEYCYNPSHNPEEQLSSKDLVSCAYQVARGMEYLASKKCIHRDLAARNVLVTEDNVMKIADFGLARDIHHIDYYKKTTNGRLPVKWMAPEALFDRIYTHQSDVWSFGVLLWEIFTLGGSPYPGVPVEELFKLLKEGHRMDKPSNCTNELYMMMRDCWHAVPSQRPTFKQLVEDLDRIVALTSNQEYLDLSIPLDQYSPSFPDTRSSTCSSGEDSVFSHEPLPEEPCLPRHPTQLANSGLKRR
UniProt Q61851, residues 21-801: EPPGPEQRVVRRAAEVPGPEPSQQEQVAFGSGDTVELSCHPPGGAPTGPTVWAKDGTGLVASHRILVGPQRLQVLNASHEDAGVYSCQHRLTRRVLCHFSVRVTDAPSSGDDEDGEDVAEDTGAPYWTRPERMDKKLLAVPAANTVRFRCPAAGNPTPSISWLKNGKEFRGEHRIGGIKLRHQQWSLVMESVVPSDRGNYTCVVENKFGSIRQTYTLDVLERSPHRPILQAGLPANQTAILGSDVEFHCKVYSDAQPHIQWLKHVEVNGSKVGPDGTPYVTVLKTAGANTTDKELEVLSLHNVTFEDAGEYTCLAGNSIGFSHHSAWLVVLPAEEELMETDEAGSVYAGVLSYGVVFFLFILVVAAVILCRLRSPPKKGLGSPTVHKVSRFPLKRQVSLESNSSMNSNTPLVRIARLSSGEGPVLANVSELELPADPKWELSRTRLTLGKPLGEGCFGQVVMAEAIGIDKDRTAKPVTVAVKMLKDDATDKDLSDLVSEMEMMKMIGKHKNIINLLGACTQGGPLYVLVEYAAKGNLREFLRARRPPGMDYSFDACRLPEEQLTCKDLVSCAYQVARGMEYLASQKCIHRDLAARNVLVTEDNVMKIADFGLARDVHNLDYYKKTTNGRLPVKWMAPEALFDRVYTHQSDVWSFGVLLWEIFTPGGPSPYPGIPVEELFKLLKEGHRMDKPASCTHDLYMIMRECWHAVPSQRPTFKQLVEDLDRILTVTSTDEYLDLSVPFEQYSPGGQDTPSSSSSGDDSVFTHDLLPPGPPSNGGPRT

binding [2]	Substance	binding [1]
binds	FGFR1 (from UniProt P16092 22-822) (receptor)	binds
no binding (tested: 50 ng/ml)	FGFR3 (from UniProt Q61851 21-801) (receptor)	–

Source: publication PMC3783882
